Test results taken from publication PMC4773256.
These are yes or no findings as the source states them, for the method shown. In cells and extracts the contact can be indirect. Some results given as binding are weak or reduced against the parent protein; the word gives no strength.

Protein sequences, listed by entry. Tags and fused reporters are not part of them.
UniProt O15169: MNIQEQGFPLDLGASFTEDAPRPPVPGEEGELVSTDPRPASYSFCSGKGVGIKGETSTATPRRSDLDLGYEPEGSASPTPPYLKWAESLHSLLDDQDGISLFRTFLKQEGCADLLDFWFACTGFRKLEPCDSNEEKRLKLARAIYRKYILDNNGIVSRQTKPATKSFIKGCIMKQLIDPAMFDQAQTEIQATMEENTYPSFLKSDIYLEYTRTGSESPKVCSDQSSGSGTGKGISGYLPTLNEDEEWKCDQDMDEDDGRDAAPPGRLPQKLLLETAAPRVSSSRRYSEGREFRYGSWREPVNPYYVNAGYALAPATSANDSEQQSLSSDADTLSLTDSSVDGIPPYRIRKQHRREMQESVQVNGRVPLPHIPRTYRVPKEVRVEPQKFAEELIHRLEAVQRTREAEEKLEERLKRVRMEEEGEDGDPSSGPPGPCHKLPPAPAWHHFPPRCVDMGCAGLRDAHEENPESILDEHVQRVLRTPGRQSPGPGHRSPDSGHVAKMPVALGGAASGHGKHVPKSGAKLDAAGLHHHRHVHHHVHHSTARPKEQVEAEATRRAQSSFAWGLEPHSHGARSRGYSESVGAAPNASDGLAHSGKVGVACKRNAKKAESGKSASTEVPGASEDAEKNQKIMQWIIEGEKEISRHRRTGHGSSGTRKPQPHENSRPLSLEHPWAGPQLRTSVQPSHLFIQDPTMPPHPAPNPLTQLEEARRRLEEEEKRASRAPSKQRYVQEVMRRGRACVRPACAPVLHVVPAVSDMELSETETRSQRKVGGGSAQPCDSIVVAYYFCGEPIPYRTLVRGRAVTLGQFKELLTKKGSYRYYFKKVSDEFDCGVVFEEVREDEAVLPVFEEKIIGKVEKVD
UniProt O95271: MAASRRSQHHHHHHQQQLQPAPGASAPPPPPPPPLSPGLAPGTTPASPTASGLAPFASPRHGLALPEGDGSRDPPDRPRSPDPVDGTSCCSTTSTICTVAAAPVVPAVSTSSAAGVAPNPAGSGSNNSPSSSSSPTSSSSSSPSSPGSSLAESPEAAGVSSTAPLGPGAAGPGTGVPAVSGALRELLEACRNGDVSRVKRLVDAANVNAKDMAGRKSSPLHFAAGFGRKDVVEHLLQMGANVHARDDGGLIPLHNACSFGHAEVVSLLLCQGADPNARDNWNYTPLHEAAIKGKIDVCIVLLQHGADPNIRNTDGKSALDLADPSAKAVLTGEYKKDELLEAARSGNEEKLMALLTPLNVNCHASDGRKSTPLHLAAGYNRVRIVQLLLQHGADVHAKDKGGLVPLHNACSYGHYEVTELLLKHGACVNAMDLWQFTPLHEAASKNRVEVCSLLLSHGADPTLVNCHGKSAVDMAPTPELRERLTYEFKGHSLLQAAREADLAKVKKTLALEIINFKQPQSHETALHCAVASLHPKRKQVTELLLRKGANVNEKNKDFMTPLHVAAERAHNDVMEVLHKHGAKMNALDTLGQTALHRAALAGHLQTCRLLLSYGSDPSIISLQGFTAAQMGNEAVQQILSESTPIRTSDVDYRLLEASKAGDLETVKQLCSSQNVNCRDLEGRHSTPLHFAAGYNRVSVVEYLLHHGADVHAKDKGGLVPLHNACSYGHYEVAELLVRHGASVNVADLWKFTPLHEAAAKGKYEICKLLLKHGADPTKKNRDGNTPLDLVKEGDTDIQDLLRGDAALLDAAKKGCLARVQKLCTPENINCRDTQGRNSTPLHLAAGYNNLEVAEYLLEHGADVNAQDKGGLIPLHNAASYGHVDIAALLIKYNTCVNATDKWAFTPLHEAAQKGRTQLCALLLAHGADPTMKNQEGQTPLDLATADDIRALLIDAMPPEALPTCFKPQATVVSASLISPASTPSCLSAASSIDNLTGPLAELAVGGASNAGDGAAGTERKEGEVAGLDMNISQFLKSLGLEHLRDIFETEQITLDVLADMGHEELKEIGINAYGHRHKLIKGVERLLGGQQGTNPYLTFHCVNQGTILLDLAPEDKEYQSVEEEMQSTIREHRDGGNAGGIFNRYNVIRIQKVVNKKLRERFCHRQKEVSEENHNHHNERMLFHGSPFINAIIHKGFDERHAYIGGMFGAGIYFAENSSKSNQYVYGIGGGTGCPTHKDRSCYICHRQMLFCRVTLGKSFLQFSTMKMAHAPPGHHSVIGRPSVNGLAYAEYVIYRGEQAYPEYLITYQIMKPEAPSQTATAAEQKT
UniProt P35222: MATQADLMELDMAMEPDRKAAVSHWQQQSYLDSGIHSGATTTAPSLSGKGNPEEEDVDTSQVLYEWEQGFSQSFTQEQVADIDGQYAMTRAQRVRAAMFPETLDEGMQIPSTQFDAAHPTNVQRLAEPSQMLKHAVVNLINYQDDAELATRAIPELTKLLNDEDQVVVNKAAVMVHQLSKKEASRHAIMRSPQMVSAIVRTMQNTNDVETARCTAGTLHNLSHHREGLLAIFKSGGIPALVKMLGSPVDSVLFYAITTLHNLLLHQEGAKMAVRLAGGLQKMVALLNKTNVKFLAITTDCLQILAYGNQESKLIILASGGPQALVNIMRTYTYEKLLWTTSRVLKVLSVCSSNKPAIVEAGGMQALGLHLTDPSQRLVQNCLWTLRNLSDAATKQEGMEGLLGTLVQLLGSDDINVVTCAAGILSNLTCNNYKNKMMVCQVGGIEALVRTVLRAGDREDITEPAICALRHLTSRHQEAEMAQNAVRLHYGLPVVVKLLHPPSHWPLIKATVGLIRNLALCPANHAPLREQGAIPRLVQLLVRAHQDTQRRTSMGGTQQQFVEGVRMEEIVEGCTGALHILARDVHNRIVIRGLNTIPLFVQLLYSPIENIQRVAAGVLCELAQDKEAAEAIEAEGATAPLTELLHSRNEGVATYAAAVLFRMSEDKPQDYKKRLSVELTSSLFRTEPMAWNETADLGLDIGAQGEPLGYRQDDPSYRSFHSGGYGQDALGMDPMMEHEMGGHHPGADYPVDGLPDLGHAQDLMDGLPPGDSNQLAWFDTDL

Columns and labels:
[1] = target: axin (human (endogenous in HEK293T)) (UniProt O15169); assay: co-IP; HEK293T cells treated 6 h or 24 h with 5 μM G007-LK; IP and analysis as in Fig 3 (axin antibody, western blot)
[2] = target: axin (human (endogenous in SW480)) (UniProt O15169); assay: co-IP; SW480 cells untreated (control); also 6 h 20 μM MG132 alone; 1 mg lysate in IP lysis buffer, axin antibody overnight, protein-G agarose, western blot
[3] = target: axin (human (endogenous in HEK293T)) (UniProt O15169); assay: co-IP; HEK293T cells untreated (control); IP and analysis as in Fig 3 (axin antibody, western blot)
[4] = target: axin (human (endogenous in SW480)) (UniProt O15169); assay: co-IP; SW480 cells treated 6 h or 24 h with TNKSi (5 μM G007-LK; also 2.5 μM XAV939); 1 mg lysate in IP lysis buffer, axin antibody overnight, protein-G agarose, western blot

| binding [1] | binding [2] | binding [3] | binding [4] | Substance |
| --- | --- | --- | --- | --- |
| binds | binds weakly | binds weakly | binds | tankyrase 1 (from UniProt O95271 1-1327) (enzyme) |
| binds |  |  | binds | β-catenin (from UniProt P35222 1-781) |
